According to patent publication US20230382910A1, “HETEROARYL COMPOUNDS FOR THE TREATMENT OF PAIN” (VERTEX PHARMACEUTICALS INCORPORATED, priority 2022, published 2023):
Some entries share one result that the patent states for a list of compounds.

Sequences of proteins named here, by UniProt entry; tags and fusion partners are left off. Residues count along the entry.
UniProt Q9Y5Y9, 660-890 limits assumed: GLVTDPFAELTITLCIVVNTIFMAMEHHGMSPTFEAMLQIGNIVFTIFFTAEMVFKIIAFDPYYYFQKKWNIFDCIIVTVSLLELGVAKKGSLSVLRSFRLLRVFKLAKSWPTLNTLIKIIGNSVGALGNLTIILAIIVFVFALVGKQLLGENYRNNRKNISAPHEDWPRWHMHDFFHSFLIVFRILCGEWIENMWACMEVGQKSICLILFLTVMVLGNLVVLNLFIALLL
UniProt Q9Y5Y9, 1148-1722 limits assumed: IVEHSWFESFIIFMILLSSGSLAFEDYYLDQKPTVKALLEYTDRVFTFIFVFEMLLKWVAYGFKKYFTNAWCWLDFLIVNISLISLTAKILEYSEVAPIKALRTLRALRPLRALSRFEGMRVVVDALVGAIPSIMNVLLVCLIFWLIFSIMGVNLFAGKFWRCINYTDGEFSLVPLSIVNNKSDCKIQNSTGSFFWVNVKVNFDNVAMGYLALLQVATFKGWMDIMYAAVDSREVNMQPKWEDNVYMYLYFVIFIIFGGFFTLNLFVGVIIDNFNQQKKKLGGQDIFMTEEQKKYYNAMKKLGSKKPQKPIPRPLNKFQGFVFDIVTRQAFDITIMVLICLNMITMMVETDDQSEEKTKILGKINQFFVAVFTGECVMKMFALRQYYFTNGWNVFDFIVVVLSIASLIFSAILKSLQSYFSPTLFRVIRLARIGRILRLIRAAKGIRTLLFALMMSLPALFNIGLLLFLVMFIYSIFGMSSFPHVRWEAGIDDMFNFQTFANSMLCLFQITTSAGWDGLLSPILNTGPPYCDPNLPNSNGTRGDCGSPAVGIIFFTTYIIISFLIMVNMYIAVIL
UniProt Q9Y5Y9, 126-399 limits assumed: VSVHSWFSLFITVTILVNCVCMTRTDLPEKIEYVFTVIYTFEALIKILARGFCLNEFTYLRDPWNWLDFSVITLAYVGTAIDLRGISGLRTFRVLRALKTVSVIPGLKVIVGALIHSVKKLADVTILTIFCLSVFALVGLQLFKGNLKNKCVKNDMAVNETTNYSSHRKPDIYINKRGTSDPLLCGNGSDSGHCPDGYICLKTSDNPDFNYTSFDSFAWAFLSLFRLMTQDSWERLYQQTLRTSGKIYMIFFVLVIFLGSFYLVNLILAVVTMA

Target: human NaV 1.8 (Homo sapiens, UniProt Q9Y5Y9)
Test: E-VIPR Assay Detecting and Measuring NaV Inhibition Properties
Assay type: cell-based
Details: HEK cells expressing a truncated form of human NaV 1.8; electrical stimulation, membrane potential FRET dyes; read-out: measured IC50 value in the E-VIPR Assay

IC50 [nM] | Compound
< 500 | Cc1cc(C(C)(C)C)c(C)cc1-c1cc(=O)c2c(F)cccc2[nH]1 [Compound 136, 2-(4-tert-butyl-2,5-dimethyl-phenyl)-5-fluoro-1H-quinolin-4-one]
< 500 | COc1ccc2[nH]c(-c3ccc(C(C)(C)C)cc3C)cc(=O)c2c1 [Compound 137, 2-(4-tert-butyl-2-methyl-phenyl)-6-methoxy-1H-quinolin-4-one]
< 500 | COc1c(F)ccc2[nH]c(-c3cc(C)c(C(C)(C)C)cc3C)cc(=O)c12 [Compound 140, 2-(4-tert-butyl-2,5-dimethyl-phenyl)-6-fluoro-5-methoxy-1H-quinolin-4-one]
< 500 | COc1c(F)ccc2[nH]c(-c3ccc(C(C)(C)C(F)(F)F)cc3C)cc(=O)c12 [Compound 141, 6-fluoro-5-methoxy-2-[2-methyl-4-(2,2,2-trifluoro-1,1-dimethyl-ethyl)phenyl]-1H-quinolin-4-one]
< 500 | Cc1cc(C2(C)CC2)ccc1-c1cc(=O)c2cc(F)ccc2[nH]1 [Compound 142]
< 500 | COc1cc(F)cc2[nH]c(-c3ccc(C(C)(C)C)cc3C)cc(=O)c12 [Compound 145, 2-(4-tert-butyl-2-methyl-phenyl)-7-fluoro-5-methoxy-1H-quinolin-4-one]
< 500 | COc1cc(F)cc2[nH]c(-c3ccc(C(C)(C)C(F)(F)F)cc3C)cc(=O)c12 [Compound 147, 7-fluoro-5-methoxy-2-[2-methyl-4-(2,2,2-trifluoro-1,1-dimethyl-ethyl)phenyl]-1H-quinolin-4-one]
< 500 | C=C(c1cc(C)c(-c2cc(=O)c3cc(F)ccc3[nH]2)cc1C)C(F)(F)F [Compound 150, 2-[2,5-dimethyl-4-[1-(trifluoromethyl)vinyl]phenyl]-6-fluoro-1H-quinolin-4-one]
< 500 | C=C(c1cc(C)c(-c2cc(=O)c3c(OC)c(F)ccc3[nH]2)cc1C)C(F)(F)F [Compound 151, 2-[2,5-dimethyl-4-[1-(trifluoromethyl)vinyl]phenyl]-6-fluoro-5-methoxy-1H-quinolin-4-one]
< 500 | Cc1cc(C(C)(C)C)c(C)cc1-c1cc(=O)c2cccc(F)c2[nH]1 [Compound 153, 2-(4-tert-butyl-2,5-dimethyl-phenyl)-8-fluoro-1H-quinolin-4-one]
< 500 | Cc1cc(C(C)(C)C)ccc1-c1cc(=O)c2cc(F)c(F)cc2[nH]1 [Compound 154, 2-(4-tert-butyl-2-methyl-phenyl)-6,7-difluoro-1H-quinolin-4-one]
< 500 | Cc1cc(C(C)(C)C)ccc1-c1cc(=O)c2c(C#N)cc(F)cc2[nH]1 [Compound 155, 2-(4-tert-butyl-2-methyl-phenyl)-7-fluoro-4-oxo-1H-quinoline-5-carbonitrile]
< 500 | Cc1cc(C(C)(C)C(F)(F)F)c(C)cc1-c1cc(=O)c2cnccc2[nH]1 [Compound 162, 2-[2,5-dimethyl-4-(2,2,2-trifluoro-1,1-dimethyl-ethyl)phenyl]-1H-1,6-naphthyridin-4-one]
< 500 | Cc1cc(C(C)(C)C(F)(F)F)c(C)cc1-c1cc(=O)c2cc(F)ccc2[nH]1 [Compound 163, 2-[2,5-dimethyl-4-(2,2,2-trifluoro-1,1-dimethyl-ethyl)phenyl]-6-fluoro-1H-quinolin-4-one]
< 500 | COc1ccc2[nH]c(-c3cc(C)c(C(C)(C)C(F)(F)F)cc3C)cc(=O)c2n1 [Compound 164, 2-[2,5-dimethyl-4-(2,2,2-trifluoro-1,1-dimethyl-ethyl)phenyl]-6-methoxy-1H-1,5-naphthyridin-4-one]
< 500 | Cc1cc(C(C)(C)C(F)(F)F)ccc1-c1cc(=O)c2cnccc2[nH]1 [Compound 167, 2-[2-methyl-4-(2,2,2-trifluoro-1,1-dimethyl-ethyl)phenyl]-1H-1,6-naphthyridin-4-one]
< 500 | Cc1cc(C(C)C)c(C)cc1-c1cc(=O)c2cc(F)ccc2[nH]1 [Compound 169, 6-fluoro-2-(4-isopropyl-2,5-dimethyl-phenyl)-1H-quinolin-4-one]
< 500 | Cc1cc(-c2cc(=O)c3cc(F)ccc3[nH]2)c(F)cc1C(C)C [Compound 171, 6-fluoro-2-(2-fluoro-4-isopropyl-5-methyl-phenyl)-1H-quinolin-4-one]
< 500 | Cc1cc(C(C)C)c(F)cc1-c1cc(=O)c2cc(F)ccc2[nH]1 [Compound 172, 6-fluoro-2-(5-fluoro-4-isopropyl-2-methyl-phenyl)-1H-quinolin-4-one]
< 500 | Cc1cc(C(C)(C)C(F)(F)F)c(Cl)cc1-c1cc(=O)c2cc(F)ccc2[nH]1 [Compound 175, 2-[5-chloro-2-methyl-4-(2,2,2-trifluoro-1,1-dimethyl-ethyl)phenyl]-6-fluoro-1H-quinolin-4-one]
< 500 | Cc1cc(C(C)(C)C(F)(F)F)c(Cl)cc1-c1cc(=O)c2cnccc2[nH]1 [Compound 176, 2-[5-chloro-2-methyl-4-(2,2,2-trifluoro-1,1-dimethyl-ethyl)phenyl]-1H-1,6-naphthyridin-4-one]
< 500 | Cc1cc(C(C)(C)C(F)(F)F)c(F)cc1-c1cc(=O)c2cnccc2[nH]1 [Compound 181, 2-[5-fluoro-2-methyl-4-(2,2,2-trifluoro-1,1-dimethyl-ethyl)phenyl]-1H-1,6-naphthyridin-4-one]
< 500 | Cc1cc(C(C)(C)C(F)(F)F)c(F)cc1-c1cc(=O)c2cc(F)ccc2[nH]1 [Compound 182, 6-fluoro-2-[5-fluoro-2-methyl-4-(2,2,2-trifluoro-1,1-dimethyl-ethyl)phenyl]-1H-quinolin-4-one]
< 500 | COc1ccc2[nH]c(-c3cc(F)c(C(C)(C)C(F)(F)F)cc3C)cc(=O)c2n1 [Compound 183, 2-[5-fluoro-2-methyl-4-(2,2,2-trifluoro-1,1-dimethyl-ethyl)phenyl]-6-methoxy-1H-1,5-naphthyridin-4-one]

The next lines start with the compound.

Compound | IC50 [nM]
COc1cccc2[nH]c(-c3ccc(C(C)(C)C)cc3C)cc(=O)c12 [Compound 135, 2-(4-tert-butyl-2-methyl-phenyl)-5-methoxy-1H-quinolin-4-one] | < 500
COc1c(F)ccc2[nH]c(-c3ccc(C(C)(C)C)cc3C)cc(=O)c12 [Compound 139, 2-(4-tert-butyl-2-methyl-phenyl)-6-fluoro-5-methoxy-1H-quinolin-4-one] | < 500
Cc1cc(C2(C)CC2)ccc1-c1cc(=O)c2c(C#N)cccc2[nH]1 [Compound 143, 2-[2-methyl-4-(1-methylcyclopropyl)phenyl]-4-oxo-1H-quinoline-5-carbonitrile] | < 500
Cc1cc(C(C)(C)C)c(C)cc1-c1cc(=O)c2c(Cl)cccc2[nH]1 [Compound 144, 2-(4-tert-butyl-2,5-dimethyl-phenyl)-5-chloro-1H-quinolin-4-one] | < 500
COc1cc(F)cc2[nH]c(-c3cc(C)c(C(C)(C)C)cc3C)cc(=O)c12 [Compound 146, 2-(4-tert-butyl-2,5-dimethyl-phenyl)-7-fluoro-5-methoxy-1H-quinolin-4-one] | < 500
COc1cc(F)c2c(=O)cc(-c3ccc(C(C)(C)C)cc3C)[nH]c2c1 [Compound 148, 2-(4-tert-butyl-2-methyl-phenyl)-5-fluoro-7-methoxy-1H-quinolin-4-one] | < 500
COc1cc(F)c2c(=O)cc(-c3cc(C)c(C(C)(C)C)cc3C)[nH]c2c1 [Compound 149, 2-(4-tert-butyl-2,5-dimethyl-phenyl)-5-fluoro-7-methoxy-1H-quinolin-4-one] | < 500
Cc1cc(C(C)(C)C)ccc1-c1cc(=O)c2cccc(F)c2[nH]1 [Compound 152, 2-(4-tert-butyl-2-methyl-phenyl)-8-fluoro-1H-quinolin-4-one] | < 500
COc1c(F)c(F)cc2[nH]c(-c3ccc(C(C)(C)C)cc3C)cc(=O)c12 [Compound 156, 2-(4-tert-butyl-2-methyl-phenyl)-6,7-difluoro-5-methoxy-1H-quinolin-4-one] | < 500
COc1cc2[nH]c(-c3ccc(C(C)(C)C)cc3C)cc(=O)c2c(F)c1F [Compound 157, 2-(4-tert-butyl-2-methyl-phenyl)-5,6-difluoro-7-methoxy-1H-quinolin-4-one] | < 500
COc1cc2[nH]c(-c3cc(C)c(C(C)(C)C)cc3C)cc(=O)c2c(F)c1F [Compound 158, 2-(4-tert-butyl-2,5-dimethyl-phenyl)-5,6-difluoro-7-methoxy-1H-quinolin-4-one] | < 500
Cc1cc(C(C)(C)C)ccc1-c1cc(=O)c2ccc(C#N)cc2[nH]1 [Compound 159, 2-(4-tert-butyl-2-methyl-phenyl)-4-oxo-1H-quinoline-7-carbonitrile] | < 500
Cc1cc2c(cc1-c1cc(=O)c3cc(F)ccc3[nH]1)CCC2(C)C [Compound 160, 6-fluoro-2-(1,1,6-trimethylindan-5-yl)-1H-quinolin-4-one] | < 500
Cc1cc2c(cc1-c1cc(=O)c3c(C(N)=O)nccc3[nH]1)CCC2(C)C [Compound 168, 4-oxo-2-(1,1,6-trimethylindan-5-yl)-1H-1,6-naphthyridine-5-carboxamide] | < 500
Cc1cc(C(C)(C)C)ccc1-c1cc(=O)c2c(C#N)nccc2[nH]1 [Compound 170, 2-(4-tert-butyl-2-methyl-phenyl)-4-oxo-1H-1,6-naphthyridine-5-carbonitrile] | < 500
COc1ccc2[nH]c(-c3ccc(C(C)(C)C(F)(F)F)cc3C)cc(=O)c2n1 [Compound 173, 6-methoxy-2-[2-methyl-4-(2,2,2-trifluoro-1,1-dimethyl-ethyl)phenyl]-1H-1,5-naphthyridin-4-one] | < 500
COc1ccc2[nH]c(-c3cc(Cl)c(C(C)(C)C(F)(F)F)cc3C)cc(=O)c2n1 [Compound 174, 2-[5-chloro-2-methyl-4-(2,2,2-trifluoro-1,1-dimethyl-ethyl)phenyl]-6-methoxy-1H-1,5-naphthyridin-4-one] | < 500
COc1ccc2[nH]c(-c3cc(C)c(C(C)(C)C)cc3C)cc(=O)c2c1F [Compound 178, 2-(4-tert-butyl-2,5-dimethyl-phenyl)-5-fluoro-6-methoxy-1H-quinolin-4-one] | < 500
Cc1cc2c(cc1-c1cc(=O)c3cc(F)ccc3[nH]1)CCCC2(C)C [Compound 179, 6-fluoro-2-(1,1,7-trimethyltetralin-6-yl)-1H-quinolin-4-one] | < 500
